The source of these data is publication PMC11445503.

The target of this assay is ABL1 as used in the GST pull-down of Supplementary Fig. S2F (human). Nature of the assay: pull-down; GST pull-down of Supplementary Fig. S2F; which partner carried GST is not told.

No constants are given. Whether binding was seen depends on the method and setting. Binding seen in cells or lysates may run through a third protein. Binding can be weak; no strength is given.

B1: FOXM1 N-terminal repressor domain (NRD, aa 1-234) (domain or fragment, UniProt Q08050-2 1-234)
chain: MKTSPRRPLILKRRRLPLPVQNAPSETSEEEPKRSPAQQESNQAEASKEVAESNSCKFPAGIKIINHPTMPNTQVVAIPNNANIHSIITALTAKGKESGSSGPNKFILISCGGAPTQPPGLRPQTQTSYDAKRTEVTLETLGPKPAARDVNLPRPPGALCEQKRETCADGEAAGCTINNSLSNIQWLRKMSSDGLGSRSIKQEMEEKENCHLEQRQVKVEEPSRPSASWQNSVS
As for B1, the binding entry was “binds”.
